{"source": "PubChem BioAssay AID493073", "about": "(Broad Institute, 2011)", "note": "About 810 (68%) of roughly 1,200 compounds were called active. No rule for the calls is given here. So high a share suggests a set chosen from earlier hits. Only a part is listed here, and it is no random draw. Measured potencies and affinities stand elsewhere."}
{"experiment": "TRPM1 promoter luciferase signal decrease, dose response, MITF inhibitor project, cell-based, SK-MEL-5, cherry-picked, set 3 (AID 493073)", "conditions": "SK-MEL-5 TRPM1 promoter luciferase, 24 h; at 35 µM (top of the series)"}
{"smiles": "CCOC(=O)c1c(-n2c(C)cc(C=C3C(=O)NC(=S)NC3=O)c2C)sc2c1CCCC2", "activity change, negative = inhibition": "inactive: -87.7%"}
{"smiles": "NC(Cc1nc2ccccc2[nH]1)c1ccc(Cl)cc1", "note": "(stereo not given)", "activity change, negative = inhibition": "inactive: 129%"}
{"smiles": "Cc1cc(C(=O)Nc2ccc3c(c2)OCCO3)nn1C(C)(C)C", "activity change, negative = inhibition": "inactive: 88.6%"}
{"smiles": "NCCc1ccc(OCc2ccccc2)c(OCc2ccccc2)c1", "activity change, negative = inhibition": "inactive: -98.5%"}
{"smiles": "Cc1ccc(N2C(=O)NC(=O)/C(=C\\C=C\\c3ccco3)C2=O)cc1", "activity change, negative = inhibition": "inactive: -59.3%"}
